{"source": "the supplement of paper PMC4604168 (melanoma cell lines)", "note": "The other results are listed elsewhere or left out. Single values are uncertain, as repeats are few or missing.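 Cells were imaged in 1,536-well plates, and nuclei stained with an antibody against cleaved PARP were counted against all DNA-stained nuclei to give the apoptosis fraction. Screening doses were chosen to leave most cells alive, and resting and induced cleaved-PARP levels differ strongly between cell lines.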", "data": [{"test_system": "501Mel", "test": "cleaved PARP positive nuclei fraction relative to DMSO control; melanoma cells; higher = more apoptosis", "details": "library dose: low library concentration; 72 h", "units": {"cleaved PARP positive nuclei fraction": "%"}, "values": [{"smiles": "CS(=O)(=O)c1ccc(C(=O)Nc2ccc(Cl)c(-c3ccccn3)c2)c(Cl)c1", "note": "[vismodegib] + N.N.[Cl][Pt][Cl] [cisplatin] (first compound 1 µM, partner dose 1.6 µM)", "cleaved PARP positive nuclei fraction": 46.7}, {"smiles": "Cc1cc(Nc2cc(N3CCN(C)CC3)nc(/C=C/c3ccccc3)n2)n[nH]1", "note": "+ C[As](C)SC[C@H](NC(=O)CC[C@H](N)C(=O)O)C(=O)NCC(=O)O [Darinaparsin] (first compound 0.04 µM, partner dose 0.4 µM)", "cleaved PARP positive nuclei fraction": 262}, {"smiles": "O=C(Nc1cc(C(F)(F)F)cc(C(F)(F)F)c1)c1cc(Cl)ccc1O", "note": "+ C[As](C)SC[C@H](NC(=O)CC[C@H](N)C(=O)O)C(=O)NCC(=O)O [Darinaparsin] (first compound 0.016 µM, partner dose 0.4 µM)", "cleaved PARP positive nuclei fraction": 93.6}, {"smiles": "Cc1cn(-c2cc(NC(=O)c3ccc(C)c(Nc4nccc(-c5cccnc5)n4)c3)cc(C(F)(F)F)c2)cn1", "note": "[nilotinib] + C[C@]12O[C@H](C[C@]1(O)CO)n1c3ccccc3c3c4c(c5c6ccccc6n2c5c31)CNC4=O [Lestaurtinib] (first compound 0.2 µM, partner dose 0.004 µM)", "cleaved PARP positive nuclei fraction": 78}, {"smiles": "C[As](C)SC[C@H](NC(=O)CC[C@H](N)C(=O)O)C(=O)NCC(=O)O", "note": "[Darinaparsin] + Cn1c(Nc2ccc(C(F)(F)F)cc2)nc2cc(Oc3ccnc(-c4ncc(C(F)(F)F)[nH]4)c3)ccc21 [CHIR265] (first compound 0.4 µM, partner dose 0.08 µM)", "cleaved PARP positive nuclei fraction": 187}, {"smiles": "Cn1cc(C2=C(c3cn(C4CCN(Cc5ccccn5)CC4)c4ccccc34)C(=O)NC2=O)c2ccccc21", "note": "[Enzastaurin] + CN(c1ncccc1CNc1nc(Nc2ccc3c(c2)CC(=O)N3)ncc1C(F)(F)F)S(C)(=O)=O [PF562271] (first compound 0.8 µM, partner dose 0.08 µM)", "cleaved PARP positive nuclei fraction": 77.7}, {"smiles": "C[C@]12O[C@H](C[C@]1(O)CO)n1c3ccccc3c3c4c(c5c6ccccc6n2c5c31)CNC4=O", "note": "[Lestaurtinib] + O=C(O)c1ccc2c(c1)nc(Nc1cccc(Cl)c1)c1ccncc12 [CX4945] (first compound 0.004 µM, partner dose 0.4 µM)", "cleaved PARP positive nuclei fraction": 66.5}, {"smiles": "CC(=O)c1c(C)c2cnc(Nc3ccc(N4CCNCC4)cn3)nc2n(C2CCCC2)c1=O", "note": "[palbociclib] + C[As](C)SC[C@H](NC(=O)CC[C@H](N)C(=O)O)C(=O)NCC(=O)O [Darinaparsin] (first compound 0.04 µM, partner dose 0.4 µM)", "cleaved PARP positive nuclei fraction": 285}, {"smiles": "NC1(c2ccc(-c3nc4ccn5c(=O)[nH]nc5c4cc3-c3ccccc3)cc2)CCC1", "note": "+ N.N.[Cl][Pt][Cl] [cisplatin] (first compound 0.4 µM, partner dose 1.6 µM)", "cleaved PARP positive nuclei fraction": 151}, {"smiles": "Cc1cc(Nc2cc(N3CCN(C)CC3)nc(Sc3ccc(NC(=O)C4CC4)cc3)n2)n[nH]1", "note": "[Tozasertib] + Cn1cc(C2=C(c3cn(C4CCN(Cc5ccccn5)CC4)c4ccccc34)C(=O)NC2=O)c2ccccc21 [Enzastaurin] (first compound 0.006 µM, partner dose 0.8 µM)", "cleaved PARP positive nuclei fraction": 249}, {"smiles": "CC(C)C[C@H](NC(=O)[C@H](Cc1ccccc1)NC(=O)c1cnccn1)B(O)O", "note": "[Bortezomib] + N.N.[Cl][Pt][Cl] [cisplatin] (first compound 0.001 µM, partner dose 1.6 µM)", "cleaved PARP positive nuclei fraction": 6520}, {"smiles": "Nc1nc(F)nc2c1ncn2[C@@H]1O[C@H](CO)[C@@H](O)[C@@H]1O", "note": "[fludarabine] + C[As](C)SC[C@H](NC(=O)CC[C@H](N)C(=O)O)C(=O)NCC(=O)O [Darinaparsin] (first compound 0.2 µM, partner dose 0.4 µM)", "cleaved PARP positive nuclei fraction": 13100}, {"smiles": "Cn1cc(C2=C(c3cn(C4CCN(Cc5ccccn5)CC4)c4ccccc34)C(=O)NC2=O)c2ccccc21", "note": "[Enzastaurin] + CCN(CC)CCNC(=O)c1c(C)[nH]c(/C=C2\\C(=O)Nc3ccc(F)cc32)c1C [sunitinib] (first compound 0.8 µM, partner dose 0.4 µM)", "cleaved PARP positive nuclei fraction": 79.4}, {"smiles": "C[C@]12O[C@H](C[C@]1(O)CO)n1c3ccccc3c3c4c(c5c6ccccc6n2c5c31)CNC4=O", "note": "[Lestaurtinib] + Nc1cccc2c1CN(C1CCC(=O)NC1=O)C2=O [lenalidomide] (first compound 0.004 µM, partner dose 1 µM)", "cleaved PARP positive nuclei fraction": 63.6}]}]}
